# Record: PubChem BioAssay AID686943 (Drosophila RNAi Screening Center, 2013)
# Test: 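Knockdowns that increase or decrease active ERK after insulin receptor stimulation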 (primary screen)
# Cells: Drosophila S2R+ haemocyte-like cells expressing YFP-tagged ERK (Rolled)
# Reagent: long dsRNA against Drosophila genes
# Treatment: insulin stimulation versus unstimulated cells; dose and duration not given
# Read-out: 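Per-plate z-scores of phospho-ERK immunostaining normalised to YFP-tagged ERK, measured with and without insulin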
# Reading the numbers: replicate 1, z-score of dpERK with insulin and replicate 2, z-score of dpERK with insulin: higher = more active ERK per ERK-YFP after insulin; replicate 1, z-score of dpERK under basal conditions: higher = more basal active ERK per ERK-YFP; replicate 1, z-score of ERK-YFP with insulin: higher = more YFP-tagged ERK signal
# The deposit covers about 23,000 reagents; this is a random part of those with a known target gene and a result. 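Extra replicates exist only for a retested subset of genes; insulin dose and duration not given; both raised and lowered dpERK matter.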 A plus sign joins genes that one reagent is predicted to hit. Not given: the amount of reagent, the time to read-out.
gene,DRSC id,"replicate 1, z-score of dpERK with insulin","replicate 2, z-score of dpERK with insulin","replicate 1, z-score of dpERK under basal conditions","replicate 1, z-score of ERK-YFP with insulin"
Osi16 (Osiris 16),DRSC12135,0.82,-0.62,0.05,0.08
Osi16 (Osiris 16),DRSC21323,0.71,0.33,-1.02,-0.19
CG17746,DRSC08521,0.94,1.08,-0.17,-0.2
mthl5 (methuselah-like 5),DRSC16155,0.94,0.05,-0.29,-0.49
CG42531,DRSC05318,-0.95,0.03,1.25,0.24
fs(1)Ya (female sterile (1) Young arrest),DRSC18776,-1.06,1.03,-0.14,-0.34
CG5246,DRSC15751,0.48,0.78,0.29,-1.2
Gpa2 (Glycoprotein hormone alpha 2),DRSC21071,0.05,-0.18,-0.47,0.12
CG31777,DRSC00201,0.15,-0.53,-0.08,-1.01
List (Lithium-inducible SLC6 transporter),DRSC06520,0.46,0.1,-0.87,0.61
fuss (fussel),DRSC17200,-0.01,0.2,0.24,0.05
fuss (fussel),DRSC21452,-1.1,-2.78,-1.3,-0.14
Ca-alpha1T (Ca[2+]-channel protein alpha[[1]] subunit T),DRSC17842,-0.11,-0.63,0.04,-0.25
Ca-alpha1T (Ca[2+]-channel protein alpha[[1]] subunit T),DRSC18103,0.02,0.01,-0.66,0.62
Ca-alpha1T (Ca[2+]-channel protein alpha[[1]] subunit T),DRSC18356,-0.43,-0.16,-0.01,-0.11
Ca-alpha1T (Ca[2+]-channel protein alpha[[1]] subunit T),DRSC18357,-0.3,-0.22,1.01,-0.29
Ca-alpha1T (Ca[2+]-channel protein alpha[[1]] subunit T),DRSC21430,-0.1,-0.42,0.68,-2.85
CG7889,DRSC20066,0.22,-0.36,-0.27,-0.45
Osi6 (Osiris 6),DRSC12128,0.38,-0.04,0.7,-1.34
CG30283,DRSC04071,0.35,-0.69,0.21,0.07
CG11656,DRSC14338,-0.25,-0.03,-0.44,-0.65
mus302 (mutagen-sensitive 302),DRSC09905,-1.37,1,-0.21,0.24
CG42450,DRSC20022,-0.78,0.28,-0.49,0.21
CG42450,DRSC22751,0.51,0.64,-0.16,0.73
QIL1,DRSC10888,-1.08,-1.1,-0.57,-1.21
CG13096,DRSC02198,0.04,0.38,-0.78,-0.84
Neos (Neosin),DRSC11235,1.15,1.61,3.64,0.01
Iru (Iruka),DRSC14457,0.48,-0.23,-0.44,-2.04

Just “replicate 1, z-score of ERK-YFP with insulin”, for 5 of the entries above:
Osi6 (Osiris 6) [DRSC12128] = -1.34
CG30283 [DRSC04071] = 0.07
CG11656 [DRSC14338] = -0.65
mus302 (mutagen-sensitive 302) [DRSC09905] = 0.24
CG42450 [DRSC20022] = 0.21

Next reagents:
gene,DRSC id,"replicate 1, z-score of dpERK with insulin","replicate 2, z-score of dpERK with insulin","replicate 1, z-score of dpERK under basal conditions","replicate 1, z-score of ERK-YFP with insulin"
Or85c (Odorant receptor 85c),DRSC16766,-0.04,-0.16,0.39,0.53
SNRPG (Small nuclear ribonucleoprotein G),DRSC20207,-0.46,0.67,-1.76,-2.93
spidey,DRSC17932,0.28,-0.31,-0.11,1.13
lectin-33A,DRSC02529,0.3,0.09,1,-0.08
lectin-33A,DRSC22116,-1.46,0.01,0.5,0.41
CG34107,DRSC14554,0.34,0.45,-0.08,-0.07
beat-IIIa (beaten path IIIa),DRSC01575,0.16,0.38,-0.29,0.01
beat-IIIa (beaten path IIIa),DRSC01577,0.11,0.13,-0.14,-0.37
beat-IIIa (beaten path IIIa),DRSC02178,1.27,1.49,-0.23,-0.07
S1P (Site-1 protease),DRSC11810,0.71,-0.07,-0.1,-0.01
CG12974,DRSC11684,-0.24,0.12,1.24,1.07
CG9592,DRSC11078,-0.86,-0.19,2.62,0.23
CG17260,DRSC00497,-0.26,0.33,-0.13,0.51
Nxf3 (Nuclear export factor 3),DRSC21749,-0.5,-0.15,0.11,0.39
mei-S332 (meiotic from via Salaria 332),DRSC04704,0.2,-0.67,1.69,0.36
CG3420,DRSC04995,0.38,-0.09,0.55,0.99
moi + Tgs1,DRSC16371,-1.23,0.02,-2.01,-0.18
Or82a (Odorant receptor 82a),DRSC11996,-0.34,-0.04,0.32,0.77
CG7239,DRSC03038,-0.58,-1.61,-1.01,-2.44
Cpr66D (Cuticular protein 66D),DRSC10640,-0.74,0.15,-1.09,-0.21
Cpr66D (Cuticular protein 66D),DRSC10646,-0.59,-2.23,-1.1,-0.17
TkR99D (Tachykinin-like receptor at 99D),DRSC16881,1.35,0.03,-0.01,-0.26
CG6293,DRSC16011,0.46,0.25,0.39,0.47
sns (sticks and stones),DRSC06423,-5.19,-4.58,-1.38,-4.43
sns (sticks and stones),DRSC07687,1.74,0.92,-3.15,-3.56
sns (sticks and stones),DRSC07688,-0.11,-0.02,0.73,1.17
sns (sticks and stones),DRSC07689,1.24,0.57,-1.36,-0.12
sns (sticks and stones),DRSC07691,-0.45,0.13,0.19,0.43
sns (sticks and stones),DRSC07692,-0.88,-1.57,-1.84,0.19
